Data as given in paper PMC9636422.
Results are given in words; binding and its absence hold for the method and conditions named. In cells and extracts the contact can be indirect. Some entries that bind do so weakly or less than the wild type.

Amino acid sequences for entries named in this document (tags omitted). A change or cut given only in a name is not applied to a line headed by its entry. Chains listed by the source or under a name are the forms on record and can include a tag or linker.
UniProt O14977: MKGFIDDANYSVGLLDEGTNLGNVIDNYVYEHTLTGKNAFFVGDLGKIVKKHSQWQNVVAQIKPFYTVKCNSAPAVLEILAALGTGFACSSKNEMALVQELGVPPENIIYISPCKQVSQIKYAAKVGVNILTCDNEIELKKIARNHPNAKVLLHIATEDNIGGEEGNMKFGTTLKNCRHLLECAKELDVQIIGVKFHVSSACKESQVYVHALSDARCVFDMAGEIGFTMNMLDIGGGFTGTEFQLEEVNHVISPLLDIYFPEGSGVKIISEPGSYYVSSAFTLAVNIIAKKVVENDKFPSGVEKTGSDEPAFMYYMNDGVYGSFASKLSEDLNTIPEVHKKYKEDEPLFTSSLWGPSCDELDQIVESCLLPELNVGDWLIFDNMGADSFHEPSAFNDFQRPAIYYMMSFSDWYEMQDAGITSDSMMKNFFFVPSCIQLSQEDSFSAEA
FLAG-tagged edited AZIN1 (Ser367Gly) (O14977, form named): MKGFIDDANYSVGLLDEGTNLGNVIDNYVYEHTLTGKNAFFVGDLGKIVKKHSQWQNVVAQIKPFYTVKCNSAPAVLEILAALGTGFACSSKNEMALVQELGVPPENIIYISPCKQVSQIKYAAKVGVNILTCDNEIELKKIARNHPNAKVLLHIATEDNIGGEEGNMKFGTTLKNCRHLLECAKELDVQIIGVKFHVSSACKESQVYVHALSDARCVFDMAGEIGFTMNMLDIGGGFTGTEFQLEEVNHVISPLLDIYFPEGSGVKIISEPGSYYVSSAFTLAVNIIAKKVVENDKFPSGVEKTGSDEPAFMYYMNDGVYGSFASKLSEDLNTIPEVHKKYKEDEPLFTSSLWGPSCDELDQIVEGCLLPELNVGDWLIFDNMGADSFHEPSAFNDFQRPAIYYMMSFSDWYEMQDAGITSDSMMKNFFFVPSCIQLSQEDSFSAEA
UniProt P35579: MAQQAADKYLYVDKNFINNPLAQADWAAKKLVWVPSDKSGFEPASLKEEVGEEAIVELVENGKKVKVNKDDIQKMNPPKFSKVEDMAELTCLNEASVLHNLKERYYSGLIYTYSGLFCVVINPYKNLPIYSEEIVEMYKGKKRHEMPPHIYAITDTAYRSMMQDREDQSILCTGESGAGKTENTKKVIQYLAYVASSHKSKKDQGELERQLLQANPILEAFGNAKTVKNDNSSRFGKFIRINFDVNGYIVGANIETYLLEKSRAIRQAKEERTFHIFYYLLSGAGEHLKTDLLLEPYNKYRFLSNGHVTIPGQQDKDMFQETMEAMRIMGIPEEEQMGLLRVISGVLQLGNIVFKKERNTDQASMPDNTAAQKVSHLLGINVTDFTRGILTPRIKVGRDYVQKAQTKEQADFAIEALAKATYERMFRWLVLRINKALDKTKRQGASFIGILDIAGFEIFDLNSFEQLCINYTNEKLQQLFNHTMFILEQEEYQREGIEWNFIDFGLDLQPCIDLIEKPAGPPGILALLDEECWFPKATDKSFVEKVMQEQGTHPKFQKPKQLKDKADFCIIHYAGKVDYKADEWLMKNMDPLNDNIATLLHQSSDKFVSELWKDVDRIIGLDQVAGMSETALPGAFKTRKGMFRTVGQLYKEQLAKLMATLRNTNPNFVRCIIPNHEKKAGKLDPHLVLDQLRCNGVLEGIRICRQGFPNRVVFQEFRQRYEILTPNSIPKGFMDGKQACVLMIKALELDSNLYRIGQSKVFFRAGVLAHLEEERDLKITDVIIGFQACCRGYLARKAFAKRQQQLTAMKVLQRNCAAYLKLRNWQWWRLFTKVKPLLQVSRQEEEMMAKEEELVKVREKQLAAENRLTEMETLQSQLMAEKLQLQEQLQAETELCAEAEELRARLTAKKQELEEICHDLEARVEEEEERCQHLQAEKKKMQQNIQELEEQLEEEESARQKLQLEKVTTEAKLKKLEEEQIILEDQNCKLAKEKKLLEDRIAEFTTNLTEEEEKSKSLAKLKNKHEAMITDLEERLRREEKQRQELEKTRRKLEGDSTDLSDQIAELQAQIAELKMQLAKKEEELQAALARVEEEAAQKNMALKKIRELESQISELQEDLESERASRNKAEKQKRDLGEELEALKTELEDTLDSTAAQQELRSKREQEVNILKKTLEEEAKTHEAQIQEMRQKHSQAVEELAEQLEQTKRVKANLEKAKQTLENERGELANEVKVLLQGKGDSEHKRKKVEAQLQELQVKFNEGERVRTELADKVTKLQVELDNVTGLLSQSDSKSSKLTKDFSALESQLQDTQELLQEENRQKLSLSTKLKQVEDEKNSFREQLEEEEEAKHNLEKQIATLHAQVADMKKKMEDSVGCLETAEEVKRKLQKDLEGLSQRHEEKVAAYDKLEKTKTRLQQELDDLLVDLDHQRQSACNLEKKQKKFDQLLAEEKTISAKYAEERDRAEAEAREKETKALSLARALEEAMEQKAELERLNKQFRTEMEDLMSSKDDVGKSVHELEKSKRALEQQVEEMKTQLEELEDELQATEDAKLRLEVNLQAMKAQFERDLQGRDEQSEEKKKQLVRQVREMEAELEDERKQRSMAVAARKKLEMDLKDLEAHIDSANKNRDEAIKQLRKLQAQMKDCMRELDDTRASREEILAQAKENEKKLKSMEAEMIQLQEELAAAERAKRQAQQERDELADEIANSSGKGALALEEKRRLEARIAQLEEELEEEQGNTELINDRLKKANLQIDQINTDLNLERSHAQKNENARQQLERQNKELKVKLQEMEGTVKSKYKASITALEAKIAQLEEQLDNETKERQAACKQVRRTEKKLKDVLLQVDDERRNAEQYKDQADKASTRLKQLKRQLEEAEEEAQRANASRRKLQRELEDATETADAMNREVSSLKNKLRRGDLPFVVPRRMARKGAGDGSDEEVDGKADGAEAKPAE

Columns and labels:
[1] = biological target: FLAG-tagged edited AZIN1 (Ser367Gly) (human) (UniProt O14977); assay: co-IP; HEK293 cells transfected with FLAG-wtAZIN1 or FLAG-edAZIN1 (24 h); immunoprecipitated with anti-FLAG antibody or IgG, protein G-agarose, western blot for myosin-9, ACTG1, ACTA2 (ACTG1 and ACTA2 in the nuclear fractions)
[2] = biological target: FLAG-tagged wild-type AZIN1 (Antizyme Inhibitor 1) (human) (UniProt O14977); assay: as above

binding [1]: binds
binding [2]: no binding
Substance: myosin-9 (from UniProt P35579 1-1960)
